Patent publication US20160374979A1, “Method of Treatment of Alopecia with Monoterpenoids” (CELLMID LIMITED, priority 2013, published 2016)
At least one read-out could not be matched to a standard name with certainty.

How the values were obtained:
[1] = system: FGF-5-dependent cell proliferation (FR-BaF3 cells expressing FGFR-1c); test: FR-Ba/F3 cell proliferation/viability assay in the presence of FGF-5 (CCK-8); type: cell-based, murine; settings: FR-BaF3 cells with rhFGF-5 1 μg/mL, 3 days, tested 0.005% (w/v) to 1.0% (w/v)
Method: Ba/F3 is a murine interleukin-3 (IL-3)-dependent pro-B cell line. […] That is, compounds were tested for their ability to modulate proliferation of FR-Ba/F3 cells in the presence of recombinant human FGF-5 (rhFGF-5) prepared according to Maeda et al., Nishi Nihon Hifuka, 69(1): 81-86, 2007.
Briefly, a suitable plasmid expressing FGFR-1c was introduced into […] ER-Ba/F3 cells, and the cells were maintained in RPMI RPMI-1640 with 10% FBS and 1.3×10^−17 M of murine IL-3 (Sigma, St Louis, […].) containing antibiotic G418 sulfate (Promega, Medison, Wis.). […]
After 3 days, colorimetric assays were performed using a Cell Counting Kit-8 (CCK-8) (Wako) according to the manufacturer's instructions to measure cell proliferation or suppression thereof by the test compound at varying concentrations. […] Absorbance at 450 nm was then measured using a microplate reader. Cell viability and proliferation for the IL-3-supplemented and FGF-5-supplemented groups was calculated as a measure of the optical density (OD) of cells treated with a test compound relative to the OD of the respective untreated controls, excluding the OD of blank controls (media only). Dose response curves were plotted and the respective inhibitory concentrations (IC50) for the test compounds were determined.

[2] = system: FR-BaF3 cells cultured in the presence of IL-3; test: FR-Ba/F3 cell proliferation/viability assay in the presence of IL-3 (CCK-8); type: cell-based, murine; settings: FR-BaF3 cells with IL-3 0.2 ng/mL, 3 days, tested 0.005% (w/v) to 1.0% (w/v)

## C=CC(C)(CCC=C(C)C)OC(C)=O (centres unmarked) [Linalyl acetate, 3,7-Dimethyl-1,6-octadien-3-yl acetate]
[1]
  IC50 (%) FGF-5: 0.4%
[2]
  IC50 (%) IL-3: 0.9%
